Source: paper PMC7048933

Protein sequences, listed by entry. Tags and fused reporters are not part of them.
UniProt O15379: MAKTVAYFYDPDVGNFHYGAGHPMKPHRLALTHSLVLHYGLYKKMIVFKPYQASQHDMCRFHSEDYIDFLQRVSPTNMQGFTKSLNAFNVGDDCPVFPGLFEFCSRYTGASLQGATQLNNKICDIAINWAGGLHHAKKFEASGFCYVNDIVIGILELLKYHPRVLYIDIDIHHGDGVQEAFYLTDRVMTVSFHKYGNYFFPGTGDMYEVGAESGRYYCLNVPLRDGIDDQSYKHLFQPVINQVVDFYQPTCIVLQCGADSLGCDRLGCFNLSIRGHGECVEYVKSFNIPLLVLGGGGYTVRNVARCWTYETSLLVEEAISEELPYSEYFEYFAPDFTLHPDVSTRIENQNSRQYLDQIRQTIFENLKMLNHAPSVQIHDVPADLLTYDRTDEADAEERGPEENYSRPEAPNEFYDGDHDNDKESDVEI
UniProt Q92830: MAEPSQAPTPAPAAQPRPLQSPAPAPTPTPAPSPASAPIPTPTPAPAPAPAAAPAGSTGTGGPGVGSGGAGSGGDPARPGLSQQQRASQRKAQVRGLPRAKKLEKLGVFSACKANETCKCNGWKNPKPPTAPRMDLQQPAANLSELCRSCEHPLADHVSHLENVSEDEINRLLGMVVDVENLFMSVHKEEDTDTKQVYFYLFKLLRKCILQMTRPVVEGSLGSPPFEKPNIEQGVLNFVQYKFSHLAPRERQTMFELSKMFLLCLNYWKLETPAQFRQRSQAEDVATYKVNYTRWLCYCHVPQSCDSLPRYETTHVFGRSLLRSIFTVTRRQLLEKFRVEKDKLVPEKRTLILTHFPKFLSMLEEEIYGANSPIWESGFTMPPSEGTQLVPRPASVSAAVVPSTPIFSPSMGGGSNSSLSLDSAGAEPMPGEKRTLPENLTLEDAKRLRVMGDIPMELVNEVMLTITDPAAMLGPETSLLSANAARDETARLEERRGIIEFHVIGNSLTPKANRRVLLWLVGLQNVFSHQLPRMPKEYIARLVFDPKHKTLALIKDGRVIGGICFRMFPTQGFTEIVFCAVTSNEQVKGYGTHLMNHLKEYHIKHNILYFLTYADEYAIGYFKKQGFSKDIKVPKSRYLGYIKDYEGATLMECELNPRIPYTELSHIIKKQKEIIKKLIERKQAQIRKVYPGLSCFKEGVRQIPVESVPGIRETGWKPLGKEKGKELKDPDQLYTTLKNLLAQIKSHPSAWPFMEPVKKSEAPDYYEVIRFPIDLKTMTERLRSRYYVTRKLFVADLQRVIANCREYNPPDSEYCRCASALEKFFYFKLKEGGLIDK

Key:
[1] = target: CDM-CBX4, chromodomain mutant of CBX4 (human) (UniProt O00257); test: co-IP; Supplementary Fig. 10B, C: WT-CBX4, CDM-CBX4 and ΔTM-CBX4 with GCN5 and HDAC3; method, cells and tags not told in the text shown (co-IP is the only binding method of the methods section)
[2] = target: ΔTM-CBX4 mutant of CBX4 (human) (UniProt O00257); test: as above

Substance	binding [1]	binding [2]
HDAC3 (from UniProt O15379 1-428) (enzyme)	binds	
HA-tagged GCN5 (from UniProt Q92830 1-837)	binds	binds

These are yes or no findings as the source states them, for the method shown. Binding seen in cells or lysates may run through a third protein. Binding can be weak; no strength is given.
